In patent US12298319B2, “Method for measuring alpha value of muscarinic M1 receptor positive allosteric modulators” (Takeda Pharmaceutical Company Limited, priority 2017, dated 2025):
Counter-ions that a name gives are not always drawn.

Settings: rats, donepezil 0.1 mg/kg p.o., Compound D 0.1 mg/kg p.o.

In the case of `COc1cc2c(cc1OC)C(=O)C(CC1CCN(Cc3ccccc3)CC1)C2` (stereo not shown) [Donepezil, Donepezil hydrochloride], the “differences in PK profile of donepezil, alone vs combination with Compound D” value is reported as “No significant differences”.
